Laboratory results from PMC10163288.
Some of the results follow.

B1: il2ra_site1_1z92_normal_mot_3d621733409fa4d2bc95fa1761ba6d8e_0001_af2_000000005_0001_1_12_H_._31bff7180b20e3ed47766ceefd9934be_0001_0001_0000200020_0000001_0_af … (protein)
chain: DEEEELARLIREAVEKNDPELLREVLEELEEKLGDPKRAVELFFRLLKLAGLSPREIFEAAQLVL
B2: il2ra_site2_3nfp_normal_mot_HHH_b1_05437_000000005_0001_40_57_H_._HHH_b2_06891_0001_0000200018_0000001_0 (protein)
chain: SSSSSSREEVEELLRQAEELYERGNPEEARKLLAEATHIAYETGDFEAFALVAEVLTRLEQSSSS
B3: il2ra_site1_3nfp_normal_mot_ems_3hM_3354_af2_000000165_0001_44_63_H_._HEEHE_0134_af2_0001_0000200023_0000001_0_af2pred_0001_af2pred_swapped (protein)
chain: NEEEEVRRAIEEVAEHVGVPSVTVEVEDGHIEVTFKGDEQDARAAALFVERALKSLGLSAEVTVK
B4: il2ra_site2_2erj_normal_mot_5ab283b237ac2ed796690f09fe12d960_0001_000000016_0001_18_34_H_._HHH_b1_00097_0001_0000200008_0000001_0_af2pred_0001_1_af2pred_swapped (protein)
chain: SSSSDEEEREELEQLIEELVKELGLSEEQKEHLELSLRNALEAGVDVESIKLYLELIAKMLSSSS
B5: il2ra_site2_3nfp_normal_mot_HHH_b1_02297_000000279_0001_41_58_H_._HHH_b2_04513_0001_0000300006_0000001_0 (protein)
chain: SSSSDLEERVRELLREAEERREEGDEERVRELLAEATHLAFELGNFELFALINEVSFRLLKSSSS
B6: il2ra_site2_3nfp_normal_mot_HHH_b2_00429_000000100_0001_21_37_H_._HHH_b1_08311_0001_0000300035_0000001_0 (protein)
chain: SSSSDEEVERLIEEAEELLRNGNPEEAKRVISRATDLAYEAGDHRLFALLVDLVAVVAHLLSSSS
B7: il2ra_site1_1z92_normal_mot_0a69b5c9b02373fb877a90f2b4b0d8e1_0001_1_af2_000000257_0001_17_32_H_._5511cb2176c827d1feb3066af2f534d5_0001_af2_0001_0000300018_00000 … (protein)
chain: PEELAEKARELLENGNPEEAEKVLEKLARELGTEEAFKKDLELAERHLGDPRAALQALIDNLARD
B8: il2ra_site2_2erj_normal_mot_HHH_b2_05633_000000270_0001_38_52_H_._HHH_b2_02780_0001_0000100003_0000001_0 (protein)
chain: SSSSSSREVSEEVSELLALLFEIKDERELRELLEEAKELAEEVNSEFLKRYVEFAERDISSSSSS
B9: il2ra_site2_2erj_normal_mot_HHH_b2_05633_000000270_0001_38_52_H_._HHH_b1_01874_0001_0000700038_0000001_0 (protein)
chain: SSSSTESVEEVSRIALQVIELFKEGNPEEAREILEEAIEKFRELNDETAVRYLEYLRRDISSSSS
B10: il2ra_site1_3nfp_normal_mot_HHH_b1_08771_af2_000000209_0001_39_54_H_._HHH_b1_06608_af2_0001_0000800042_0000001_0_af2pred_0001_af2pred_swapped (protein)
chain: SSSSDKNRRVEELLKELSELNQHGDEEEAKRLIEEIRELVEELNNPLARELLEELEKLLNLSSSS
B11: il2ra_site1_2b5i_sap_20_mot_9a773f325bc24391a11cd301277c1e75_0001_1_000000041_0001_1_15_H_._HHH_b1_03334_0001_0000400022_0000001_0_0001_af2pred_dldesign_0_af2pr … (protein)
chain: SSSSSERRQLIEELTALLKELAAKGDEEALDEVEEKATEALRSKDEELLKEAIDLAKSLLSSSSS
B12: il2ra_site1_1z92_normal_mot_01209686ea234b34325f918445e6eade_0001_af2_000000144_0001_18_33_H_._9b48fa28f67d9e4d24aa4ae74bce6cf0_0001_0001_0000300014_0000001_0 (protein)
chain: DEIVEELRRLAEELKDPDIERVAELVQQMLRLGLPPEKAAKAVLKALEIQGDPELVELLEELLRK
B13: il2ra_site1_2b5i_sap_12_mot_HHH_b1_05608_000000027_0001_1_14_H_._HHH_b1_00614_0001_0000400027_0000001_0_0001_af2pred_dldesign_0_af2pred (protein)
chain: SSSSDELRDLIEEYIRRARELAAAGRLEEAKKLLIMARRAARRAGDAELLARVEALLAEISSSSS
B14: il2ra_site1_1z92_sap_16_mot_3addaf244d7ecd9a0b92efa75fcb2124_0001_1_000000006_0001_1_15_H_._HHH_b1_05664_0001_0000200013_0000001_0_0001 (protein)
chain: GKKHVEQAEKYAGGDPETFVRLVLRLLKAAGDLSPEELEELEEKLEELLKRDPEKAKKLAEELLN
B15: il2ra_site1_1z92_sap_14_mot_HHH_b1_08133_000000026_0001_1_19_H_._HHH_b1_03598_0001_0000500020_0000001_0_0001_af2pred_0001_af2pred (protein)
chain: SSAEKLLEEAVEKNDEELLREFIELLLKDIGDPHLVRRLLEILVKKLGLPPEVLERLRELLEELT
B16: il2ra_site2_2erj_normal_mot_HHH_b2_08201_000000058_0001_20_36_H_._HHH_b2_08333_0001_0000600017_0000001_0 (protein)
chain: SSSSSEEEEEVEELIERVRKLIKEGNPEEAEELLSRAFEIAYQAGNVELAAELIELAALLFSSSS
B17: il2ra_site1_2b5i_sap_14_mot_HHH_b1_04602_000000079_0001_23_39_H_._418b0f4789b0b78872a3c6dbebafb2a7_0001_af2_0001_0000100001_0000001_0_0001_af2pred_dldesign_0_af … (protein)
chain: SSSSSPETEEALRLFLEADKLYQAGKEEEAKEVLEKALEVAKKGKATSLEKAIERILEELSSSSS
B18: il2ra_site1_2b5i_normal_mot_HHH_b2_07442_af2_000000069_0001_1_16_H_._HHH_b1_02970_0002_0000100004_0000001_0_af2pred_dldesign_0_af2pred (protein)
chain: SSSSDEVSDKIYELYKEALKLWREGKKEEAIKKLEEALKLAKANNDPRAAEIERLIEYLKSSSSS
B19: il2ra_site2_3nfp_normal_mot_HHH_b1_00660_af2_000000090_0001_40_57_H_._HHH_b2_00546_0001_0000100002_0000001_0_af2pred_0001_1_af2pred_swapped (protein)
chain: SSSSDELEERVRELLKRAEELREEGNPEEARKLLAEAAQLAYENNDFELFALINEVREKLESSSS

Each binder was assayed against il2ra, P01589 (assay: yeast display titration).

Apparent Kd, inactive:
B1 no binding seen, B2 no binding seen, B3 no binding seen, B4 no binding seen, B5 no binding seen, B6 no binding seen, B7 no binding seen, B8 no binding seen, B9 no binding seen, B10 no binding seen, B11 no binding seen, B12 no binding seen, B13 no binding seen, B14 no binding seen, B15 no binding seen, B16 no binding seen, B17 no binding seen, B18 no binding seen, B19 no binding seen
